# From patent US10577428B2, “Anti-factor XI monoclonal antibodies and methods of use thereof” (Oregon Health & Science University, priority 2007, dated 2020)
# B1: aXIMab: neutralizing murine IgG/kappa anti-human FXI monoclonal antibody from hybridoma 1A6; binds A3 domain; VH SEQ ID NO:3, VL SEQ ID NO:5 (antibody, listed as Mus musculus, V domains shown)
# VH: QVTLKESGPGILKPSQTLSLTCSFSGFSLSTSGMGVGWIRQPSGKGLEWLAHIWWDDDKYYNPSLKSQLTISKDTSRNQVFLKITSVDAADTATYYCARKRSSVVAHYYAMDYWGQGTSVTVSS
# VL: DIVLTQSPASLAVSLGQRATISCKASQSVDYDGDSYLNWYQQKPGQPPKLLIYAASNLESGIPARFSGSGSGTDFTLNIHPVEEEDAATYYCQQSNGDPWTFGGGTKLEIK
# Test system: baboons (Papio anubis)
# Assay: Local and systemic TAT, βTG and D-dimer during thrombus formation (4 mm grafts)
# Type: in vivo, baboon (Papio anubis)
# Conditions: at 60 min
# Protocol: A novel local sampling method was used to assess the local production of thrombogenic mediators by sampling blood that superfused propagating experimental thrombi. […] All blood samples were collected into 1/10th volume 3.8% citrate anticoagulant. Systemic samples (1 ml each) were collected before initiation of thrombosis as well as 30 and 60 min into each study. A total of 6 local blood samples were drawn from the peripheral blood IBL at a rate of 100 μl/min over 10 min intervals out of a 0.64 mm port which was located 10 mm distal to the growing thrombus (FIG. 1A). […] Infusion and sampling were regulated by syringe pumps (Harvard Apparatus). Local sampling was performed only with the 4 mm i.d. devices in this study.
# Blood cell counts were determined using a micro-60 automated cell counter (Horiba-ABX Diagnostics). Blood samples were divided into two aliquots and processed according to specific test requirements. All samples were placed on ice for 10 min, centrifuged at 4° C. for 10 min at 12,900 g, and the plasmas were stored at −80° C. For β-thromboglobulin (βTG) determinations, the samples were supplemented with 4 μg/ml prostaglandin E1 (PGE1), 4.3 mg/ml acetylsalicylic acid (ASA), and 50 μg/ml PPACK. […]
molecule,measurement,setting,value
B1,Local D-dimer levels,n=6,2.2 ± 0.2 µg/mL
same,Systemic D-dimer levels,control 2.4±0.3,2.3 ± 0.2 µg/mL
